Measured data: PubChem BioAssay AID652272 (Drosophila RNAi Screening Center, 2013)
In all, the deposit lists about 21,000 reagents; this is a random part of those that have a named target and a result. Over the whole deposit, 503 (2.4%) are marked active. 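Raw plate light values, not normalised; calls rest on replicate z-scores that were not deposited; hits include reporter decreases as well as increases.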 Entries without a mark were called inactive. A plus sign joins genes that one reagent is predicted to hit. Not stated in the record: the amount of reagent, the time to read-out.

Screen: 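Finding fly genes that regulate Hedgehog signal transduction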 (primary screen)
Cells: Drosophila clone 8 (Cl8) cells
Reagents: long dsRNA against Drosophila genes
Measured: 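Plate reader light from a firefly reporter under a ptc promoter fragment that responds to Hedgehog, with Renilla light as transfection reference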
Reading the numbers: firefly Hh reporter signal: higher = more ptc reporter light; Renilla reference signal: higher = more Renilla control light
Rule for the call: 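Called a hit if the two-replicate mean z-score lies below -2 or above +3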
Calls: active = hit: reporter lowered or raised; inactive = not a hit

{"gene":"Gk2","PubChem SID":"SID104188402","firefly Hh reporter signal, replicate 1":1.12e5,"firefly Hh reporter signal, replicate 2":97687,"Renilla reference signal, replicate 1":5265,"Renilla reference signal, replicate 2":3768}
{"gene":"Atg16","PubChem SID":"SID104194844","firefly Hh reporter signal, replicate 1":90352,"firefly Hh reporter signal, replicate 2":96626,"Renilla reference signal, replicate 1":1162,"Renilla reference signal, replicate 2":2928}
{"gene":"Atg16","PubChem SID":"SID104195092","firefly Hh reporter signal, replicate 1":69203,"firefly Hh reporter signal, replicate 2":1.04e5,"Renilla reference signal, replicate 1":2060,"Renilla reference signal, replicate 2":6448}
{"gene":"Atg16","PubChem SID":"SID104195167","firefly Hh reporter signal, replicate 1":84169,"firefly Hh reporter signal, replicate 2":1.48e5,"Renilla reference signal, replicate 1":2496,"Renilla reference signal, replicate 2":6477}
{"gene":"Kots","PubChem SID":"SID104196373","firefly Hh reporter signal, replicate 1":1.31e5,"firefly Hh reporter signal, replicate 2":95833,"Renilla reference signal, replicate 1":5040,"Renilla reference signal, replicate 2":4146}
{"gene":"CG5783","PubChem SID":"SID104182686","firefly Hh reporter signal, replicate 1":1.23e5,"firefly Hh reporter signal, replicate 2":64508,"Renilla reference signal, replicate 1":3114,"Renilla reference signal, replicate 2":5193}
{"gene":"Mys45A","PubChem SID":"SID104186859","firefly Hh reporter signal, replicate 1":70530,"firefly Hh reporter signal, replicate 2":39563,"Renilla reference signal, replicate 1":3382,"Renilla reference signal, replicate 2":1780}
{"gene":"TBC1d7 + mRpS24","PubChem SID":"SID104194403","firefly Hh reporter signal, replicate 1":5.41e5,"firefly Hh reporter signal, replicate 2":95843,"Renilla reference signal, replicate 1":27238,"Renilla reference signal, replicate 2":3032}
{"gene":"rgn","PubChem SID":"SID104191401","firefly Hh reporter signal, replicate 1":98739,"firefly Hh reporter signal, replicate 2":82076,"Renilla reference signal, replicate 1":4265,"Renilla reference signal, replicate 2":2994}
{"gene":"Ser12","PubChem SID":"SID104180578","firefly Hh reporter signal, replicate 1":1.01e5,"firefly Hh reporter signal, replicate 2":78684,"Renilla reference signal, replicate 1":2182,"Renilla reference signal, replicate 2":1560}
{"gene":"CG9503","PubChem SID":"SID104199978","firefly Hh reporter signal, replicate 1":1.25e5,"firefly Hh reporter signal, replicate 2":3.27e5,"Renilla reference signal, replicate 1":3122,"Renilla reference signal, replicate 2":13335}
{"gene":"CG5854","PubChem SID":"SID104195686","firefly Hh reporter signal, replicate 1":5.98e5,"firefly Hh reporter signal, replicate 2":79527,"Renilla reference signal, replicate 1":3478,"Renilla reference signal, replicate 2":3478}
{"gene":"cue","PubChem SID":"SID104188040","firefly Hh reporter signal, replicate 1":1.32e5,"firefly Hh reporter signal, replicate 2":65282,"Renilla reference signal, replicate 1":5179,"Renilla reference signal, replicate 2":2585}
{"gene":"apt","PubChem SID":"SID104184463","firefly Hh reporter signal, replicate 1":1.18e5,"firefly Hh reporter signal, replicate 2":57984,"Renilla reference signal, replicate 1":3347,"Renilla reference signal, replicate 2":1277}
{"gene":"CkIIalpha","PubChem SID":"SID104191738","firefly Hh reporter signal, replicate 1":37996,"firefly Hh reporter signal, replicate 2":45243,"Renilla reference signal, replicate 1":1804,"Renilla reference signal, replicate 2":1819}
{"gene":"CG12723","PubChem SID":"SID104199291","firefly Hh reporter signal, replicate 1":95338,"firefly Hh reporter signal, replicate 2":3.26e5,"Renilla reference signal, replicate 1":2999,"Renilla reference signal, replicate 2":11369}
{"gene":"Wdr37","PubChem SID":"SID104194292","firefly Hh reporter signal, replicate 1":1.02e5,"firefly Hh reporter signal, replicate 2":82576,"Renilla reference signal, replicate 1":4317,"Renilla reference signal, replicate 2":3419}
{"gene":"CG12538","PubChem SID":"SID104194319","firefly Hh reporter signal, replicate 1":58988,"firefly Hh reporter signal, replicate 2":57543,"Renilla reference signal, replicate 1":1563,"Renilla reference signal, replicate 2":1313}
{"gene":"fig","PubChem SID":"SID104196062","firefly Hh reporter signal, replicate 1":81879,"firefly Hh reporter signal, replicate 2":1.63e5,"Renilla reference signal, replicate 1":1624,"Renilla reference signal, replicate 2":7920}
{"gene":"Rpn8","PubChem SID":"SID104184416","firefly Hh reporter signal, replicate 1":"27507 (active)","firefly Hh reporter signal, replicate 2":28372,"Renilla reference signal, replicate 1":1238,"Renilla reference signal, replicate 2":3818}
{"gene":"CG13599","PubChem SID":"SID104194394","firefly Hh reporter signal, replicate 1":4.65e5,"firefly Hh reporter signal, replicate 2":86896,"Renilla reference signal, replicate 1":22884,"Renilla reference signal, replicate 2":2968}
{"gene":"CG1983","PubChem SID":"SID104195202","firefly Hh reporter signal, replicate 1":1.01e5,"firefly Hh reporter signal, replicate 2":1.03e5,"Renilla reference signal, replicate 1":2128,"Renilla reference signal, replicate 2":2938}
{"gene":"ato","PubChem SID":"SID104196696","firefly Hh reporter signal, replicate 1":58420,"firefly Hh reporter signal, replicate 2":87400,"Renilla reference signal, replicate 1":1648,"Renilla reference signal, replicate 2":2633}
{"gene":"Nup160","PubChem SID":"SID104182566","firefly Hh reporter signal, replicate 1":45737,"firefly Hh reporter signal, replicate 2":32867,"Renilla reference signal, replicate 1":1264,"Renilla reference signal, replicate 2":4346}
{"gene":"Jhbp6","PubChem SID":"SID104191506","firefly Hh reporter signal, replicate 1":92394,"firefly Hh reporter signal, replicate 2":1.15e5,"Renilla reference signal, replicate 1":3115,"Renilla reference signal, replicate 2":2821}
{"gene":"Oxp","PubChem SID":"SID104186504","firefly Hh reporter signal, replicate 1":83093,"firefly Hh reporter signal, replicate 2":44955,"Renilla reference signal, replicate 1":2160,"Renilla reference signal, replicate 2":3304}
{"gene":"CG2202","PubChem SID":"SID104199633","firefly Hh reporter signal, replicate 1":1.41e5,"firefly Hh reporter signal, replicate 2":4.03e5,"firefly Hh reporter signal, replicate 3":1.05e5,"Renilla reference signal, replicate 1":2704,"Renilla reference signal, replicate 2":21001}

Entries listed so far whose target name begins with R or r:
{"gene":"rgn","PubChem SID":"SID104191401","firefly Hh reporter signal, replicate 1":98739,"firefly Hh reporter signal, replicate 2":82076,"Renilla reference signal, replicate 1":4265,"Renilla reference signal, replicate 2":2994}
{"gene":"Rpn8","PubChem SID":"SID104184416","firefly Hh reporter signal, replicate 1":"27507 (active)","firefly Hh reporter signal, replicate 2":28372,"Renilla reference signal, replicate 1":1238,"Renilla reference signal, replicate 2":3818}
